# Measured data: PubChem BioAssay AID1259254 (NCATS, 2017)
# Purpose: 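Gene knock-downs that lead to re-replication, shown by excess G2 DNA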 (primary screen)
# Cells: human HCT116 colorectal cancer cells
# Reagent: single siRNA against human genes
# Timing: 3 days
# Measurement: 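Imaged Hoechst DNA stain sorts each cell into a cycle phase by DNA amount; per plate, G2 fraction set to 0% for non-targeting and 100% for GMNN siRNA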
# Scale: G2 robust z-score and G2 cells, % of GMNN control: higher = more G2 cells, more excess DNA replication
# Call rule: 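Active siRNAs have a G2 robust z of 5 or more median absolute deviations over the median, which in these data means about 38% or higher of GMNN control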
# The whole screen tested about 59,000 reagents; shown is an unselected part. About 1,550 of all reagents (2.6%) count as active. 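G2 share is only a proxy for re-replication; each gene was hit by three separate siRNAs, and active genes were retested.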 Unmarked entries are inactive. The numbers tell different reagents against one gene apart. Further read-outs or replicates are left out here. Not given: the amount of reagent.
gene,reagent no.,G2 robust z-score,"G2 cells, % of GMNN control"
"CTSL3P (cathepsin L family member 3, pseudogene)",1,-0.98,-3.93
"CTSL3P (cathepsin L family member 3, pseudogene)",2,-1.43,-7.1
"CTSL3P (cathepsin L family member 3, pseudogene)",3,0.0229,3.13
HIRIP3 (HIRA interacting protein 3),1,2.2,18.4
HIRIP3 (HIRA interacting protein 3),2,-0.833,-2.89
HIRIP3 (HIRA interacting protein 3),3,-0.781,-2.52
NOL6 (nucleolar protein 6),1,2.02,17.2
NOL6 (nucleolar protein 6),2,6.21 (active),46.7
NOL6 (nucleolar protein 6),3,0.269,4.86
SYCP3 (synaptonemal complex protein 3),1,2.1,17.7
SYCP3 (synaptonemal complex protein 3),2,2.16,18.2
SYCP3 (synaptonemal complex protein 3),3,-0.152,1.9
ADAMTS20 (ADAM metallopeptidase with thrombospondin type 1 motif 20),1,0.646,7.51
ADAMTS20 (ADAM metallopeptidase with thrombospondin type 1 motif 20),2,1.17,11.2
ADAMTS20 (ADAM metallopeptidase with thrombospondin type 1 motif 20),3,-0.381,0.287
CCDC148 (coiled-coil domain containing 148),1,1.21,11.5
CCDC148 (coiled-coil domain containing 148),2,2.34,19.4
CCDC148 (coiled-coil domain containing 148),3,-0.59,-1.18
CLPTM1 (CLPTM1 regulator of GABA type A receptor forward trafficking),1,-0.0723,2.46
CLPTM1 (CLPTM1 regulator of GABA type A receptor forward trafficking),2,-0.413,0.0598
CLPTM1 (CLPTM1 regulator of GABA type A receptor forward trafficking),3,-0.6,-1.25
PPP2R2A (protein phosphatase 2 regulatory subunit Balpha),1,1.94,16.6
PPP2R2A (protein phosphatase 2 regulatory subunit Balpha),2,1.98,16.9
PPP2R2A (protein phosphatase 2 regulatory subunit Balpha),3,-0.327,0.669
ORM1 (orosomucoid 1),1,-0.111,2.18
ORM1 (orosomucoid 1),2,0.892,9.24
ORM1 (orosomucoid 1),3,7.94 (active),58.8
COX15 (cytochrome c oxidase assembly factor COX15),1,6.93 (active),51.7
COX15 (cytochrome c oxidase assembly factor COX15),2,-0.897,-3.35
COX15 (cytochrome c oxidase assembly factor COX15),3,-0.354,0.479
DLL3 (delta like canonical Notch ligand 3),1,-0.773,-2.47
DLL3 (delta like canonical Notch ligand 3),2,-0.324,0.691
DLL3 (delta like canonical Notch ligand 3),3,-0.16,1.84
PRPF18 (pre-mRNA processing factor 18),1,0.36,5.5
PRPF18 (pre-mRNA processing factor 18),2,0.217,4.5
PRPF18 (pre-mRNA processing factor 18),3,-0.171,1.77
ANKRD44 (ankyrin repeat domain 44),1,0.106,3.72
ANKRD44 (ankyrin repeat domain 44),2,3.06,24.5
ANKRD44 (ankyrin repeat domain 44),3,0.377,5.62
SH2B1 (SH2B adaptor protein 1),1,-0.964,-3.81
SH2B1 (SH2B adaptor protein 1),2,-0.116,2.15
SH2B1 (SH2B adaptor protein 1),3,1.76,15.4
IFNE (interferon epsilon),1,0.547,6.82
IFNE (interferon epsilon),2,-0.733,-2.19
IFNE (interferon epsilon),3,2.01,17.1
TUBE1 (tubulin epsilon 1),1,0.555,6.87
TUBE1 (tubulin epsilon 1),2,-0.716,-2.07
TUBE1 (tubulin epsilon 1),3,-1.03,-4.25

4 entries from above, set out differently:
gene	reagent no.	G2 robust z-score	G2 cells, % of GMNN control
ADAMTS20 (ADAM metallopeptidase with thrombospondin type 1 motif 20)	1	0.646	7.51
ADAMTS20 (ADAM metallopeptidase with thrombospondin type 1 motif 20)	2	1.17	11.2
ADAMTS20 (ADAM metallopeptidase with thrombospondin type 1 motif 20)	3	-0.381	0.287
CCDC148 (coiled-coil domain containing 148)	1	1.21	11.5
